Results reported in patent US20200055939A1.
No constants are given. Whether binding was seen depends on the method and setting.

The chains behind the UniProt entries cited, without tags or fusion partners. Where a name states a change or a piece, a line headed by the entry shows the natural chain unless it says otherwise.
UniProt Q29983: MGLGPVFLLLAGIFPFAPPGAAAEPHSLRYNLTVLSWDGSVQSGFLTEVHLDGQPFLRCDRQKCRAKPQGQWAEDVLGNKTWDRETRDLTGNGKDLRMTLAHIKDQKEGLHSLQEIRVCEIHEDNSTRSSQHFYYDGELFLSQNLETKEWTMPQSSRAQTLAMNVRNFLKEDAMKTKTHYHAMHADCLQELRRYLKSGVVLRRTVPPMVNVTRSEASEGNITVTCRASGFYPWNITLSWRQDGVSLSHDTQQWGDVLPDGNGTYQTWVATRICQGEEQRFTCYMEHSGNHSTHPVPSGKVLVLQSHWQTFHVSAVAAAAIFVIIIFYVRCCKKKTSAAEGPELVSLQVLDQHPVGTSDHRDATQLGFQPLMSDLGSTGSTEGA

What was measured:
[1] = target: MILL1-MICA chimera.murine IgG2a Fc fusion (mouse MILL1 with grafted human MICA*008 residues); experiment: ELISA, coated chimera
[2] = target: MICA.008.a3.T204-S297.H248N.mIgG2a.Glyco15 (human; mouse) (UniProt Q29983); experiment: ELISA, coated variant
[3] = target: MICA.008.a3.T204-S297.R279N.mIgG2a.Glyco16 (human; mouse) (UniProt Q29983); experiment: ELISA, coated variant
[4] = target: MICA.008.a3.T204-S297.G243N.mIgG2a.Glyco14 (human; mouse) (UniProt Q29983); experiment: ELISA, coated variant

Binder | binding [1] | binding [2] | binding [3] | binding [4]
9C9.5.6 (antibody, V domains shown) VH: QVQLKESGPGLVAPSQSLSITCTVSGFSLNGQGVNWVRQPPGKGLEWLGMIWGDGSTDYNSALKSRLSISKDNSRSQVFLKMNSLQTDDTARYYCARGAHYGKRWYFDVWGAGTTVTVSS VL: DIQMTQTTSSLSASLGDRVTISCSASQNINNYLNWYQQKPHGTVKLLIYYTSSLPSGVPSRFSGSGSGTDYSLTISNLEPEDIASYYCQQYSKLPPTFGGGTKVEIK | no binding (tested: ELISA value not >0.65) | – | – | –
7A3.1.9 (antibody, V domains shown) VH: QVQLKESGPGLVAPSQSLSITCTVSGFALTGSGVNWVRQPPGKGLEWLGMIWGDGNTDYNSALKSRLSISKDNSKSQIFLKMNSLQTDDTARYYCARGAHYGKRWYFDVWGAGTTVTVSS VL: DIQMTQTTSSLSASLGDRVTISCSASQGINNYLNWYQQKPDGTVKLLIYYTSSLPSGVPSRFSGSGSGTDYSLTISNLEPEDIATYYCQQYSKLPPTFGGGTKVEIK | no binding (tested: ELISA value not >0.65) | no binding (tested: ELISA value not >0.65) | no binding (tested: ELISA value not >0.65) | –
3C9.10 (antibody, V domains shown) VH: QVQLKESGPGLVAPSQSLSITCTVSGFSLTGSGVNWVRQPPGKGLEWLGMIWGDGNTDYNSALKSRLSISKDNSKSQIFLKMNSLQTDDTARYYCARGAYYGKRWYFDVWGAGTTVTVSS VL: DIQMTQTTSSLSASLGDRVTISCSASQGISNYLNWYQQKPDGTVKLLIYYTSSLHSGVPSRFSGSGSGTDYSLTISNLEPEDIATYYCQQYSKLPPTFGGGTKVEIK | no binding (tested: ELISA value not >0.65) | no binding (tested: ELISA value not >0.65) | – | –
1E6.1.3 (antibody, V domains shown) VH: QVQLKESGPGLVAPSQSLSITCTVSGFSLTGSGVNWVRQPPGQGLEWLGMIWGDGNTDYNSALKSRLSISKDNSKSQVFLKMNSLQTDDTARYYCARGAHYGKRWYFDVWGAGTTVTVSS VL: DIQMTQTTFSLSASLGDRVTISCSASQGINNYLNWYQQRPDGTVKLLIYYTSTLPSGVPSRFSGSGSGTDYSLTISNLEPEDIASYYCQQYSKLPPTFGGGTKVEIK | no binding (tested: ELISA value not >0.65) | no binding (tested: ELISA value not >0.65) | no binding (tested: ELISA value not >0.65) | –
32D2 (antibody, V domains shown) VH: DVHLVESGGGLVQPGGSRKLSCAASGFTFNTFGMNWVRQAPEKGLEWVAYINSGSNTIYYADTVKGRFTISRDNPKNTLFLQMTSLRSEDTAMYYCTRWEPVTGGFSYWGQGTLVTVSA VL: QIVLTQSPAFKSSSLGERVTMTCTASSSISSSYLHWYQQKPGSSPKLWIYTTSNLASGVPARFSGSGSGTSYSLTISTMEAEDAATYYCHQHHRSPFTFGSGTKVEIK | no binding (tested: ELISA value not >0.65) | – | no binding (tested: ELISA value not >0.65) | no binding (tested: ELISA value not >0.65)
3E11 (antibody, V domains shown) VH: EIQLQQSGPELVKPGASVKVSCTASGYAFTKYNIYWVKQSHGKSLEWIGYIDPYTGGTISNQKFTGRATLTVDKSSSTAYLHLNSLTSEDSAVYYCARPGSYWYFGVWGAGTTVTVSS VL: DILMTQTPLSLPVSLGDQASISCRSSQSIVYTNGNTNLEWYLQKPGQSPKLLIYKVSNRFSGVPDRFSGSGSGTDFTLKISRVEAEDLGVYYCFQASYVPFTFGSGTKVEIK | no binding (tested: ELISA value not >0.65) | – | no binding (tested: ELISA value not >0.65) | no binding (tested: ELISA value not >0.65)
6E12.5 (antibody, V domains shown) VH: EVQLVESGGGLVKPGGSLKLSCAASGFTFSDYYMYWVRQTPEKRLEWVATISDGITYTYYSDSVRGRFTISRDNAENTLYLQMSSLKSEDTAMYYCSKGGGSTARGALDFWGQGTSVTVSS VL: DIQMNQSPSSLSASLGDTITITCHASQNIHVWLSWYQQKPGNIPKLLIYGASHLHTGVPSRFSGRGSGTGFTLTISSLQPEDIATYYCLQGQSYPLTFGSGTKVEIK | no binding (tested: ELISA value not >0.65) | no binding (tested: ELISA value not >0.65) | – | –
18G3 (antibody, V domains shown) VH: VQLQESGPGLVKPSQSLSLTCNVTGYSITGDYAWNWIRQFPGNKLEWIGYIGYTGSTTYNPSLKSRVSITRDTSKNQFFLQLNSVTPEDTATYYCARWRNWAMDYWGLGTSVTVSS VL: DIQMTQTPSSLSASLGDRVTISCRANQDISHYLNWYQQKPDGAVKLLIYYTSRIHSGVPSRFSGSGSGTDYSLTIANLEQEDVATYFCQQGNTPPTTFGGGTKVEIK | no binding (tested: ELISA value not >0.65) | – | – | no binding (tested: ELISA value not >0.65)
20G11 (antibody, V domains shown) VH: DVQLVESGGGLVQPGGSRKLSCAASGFTFSTFGIHWVRQAPEKGLEWVAYISYDSRTIYYADTVKGRFTISRDNPKNTLFLQMTSLRSEDTAMYYCARWAYEGGVNYFDNWGQGTTLTVSS VL: QIVLTQSPAIMSASLGERVTMTCTATSGVSSSYLHWYQQKPGSSPKLWIYSSSNLASGVPARFSGSGSGTSYSLTIGSMEAEDAATYYCHQFHRSPLTFGTGTKVEIK | no binding (tested: ELISA value not >0.65) | – | no binding (tested: ELISA value not >0.65) | –
15F11 (antibody, V domains shown) VH: EIQLQQSGPELVKPGASVRVSCKPSGYAFTSNNIYWVKQSRRKSLEWIGYIDPYIGRIIYNQQFKDKATLTVDKSSSTAYMHLNSLTSEDSAVYYCSRSGERSNFDYWGQGTTLTVSS VL: EIVLTQSPTAMAASPGEKITITCSASSSISSNYLHWYQQKPGFSPKLLIYRTSNLASGVPARFSGSGSGTSYSLTIGPMEAEDVATYYCQQGGSLPLTFGAGTKVEIK | no binding (tested: ELISA value not >0.65) | – | no binding (tested: ELISA value not >0.65) | no binding (tested: ELISA value not >0.65)
1D5 (antibody, V domains shown) VH: EIQLQQSGPELVKPGASVKVSCKASGYAFTSQNIYWVKQSHGKSLEWIGYIEPYNVVPMYNPKFKGKATLTVDKSSSSAYIHLNSLTSEDSAIYYCARSGSSNFDYWGQGTTLTVSS VL: EIILTQSPTTMAASPGEKITITCSASSSISSHYLHWYQQKSGFSPKLLIYRTSNLASGVPARFSGSGSGTSYSLTIGTMEAEDVATYYCQQGSSLPLTFGAGTKVEIK | no binding (tested: ELISA value not >0.65) | – | no binding (tested: ELISA value not >0.65) | no binding (tested: ELISA value not >0.65)
7D4.6 (antibody, V domains shown) VH: DVQLQESGPGLVKPSQSLSLTCTVTGYSITSDYAWNWIRQFPRNKLEWMGYINYSGTTNYNPSLKSRISITRDTSKNQFFLQLISVTTEDTATYYCSYYRYDGAWFPYWGQGTLVTVSA VL: DIQMTQSPASLSASVGETVTITCRASGNIHNYLAWYQQKQGKSPQLLVYNAIMLADGVPSRFSASGSGTQYSLKINSLQPEDFGSYYCQHFWSFPLTFGAGTKVEIK | no binding (tested: ELISA value not >0.65) | – | no binding (tested: ELISA value not >0.65) | no binding (tested: ELISA value not >0.65)
6F8.7 (antibody, V domains shown) VH: DVQLQGSGPGLVKPSQSLSLTCSVTGYSITNDYYWNWIRQFPGNKLEWMGFISFGGSNNYNPSLKNRISITRDTSKNQFFLKLSSVTTEDTATYYCARYDGRGAWFAYWAQGTLVTVSA VL: DIQMTQSPASLSASVGETVTITCRASGNIHNYLAWYQQKQGKSPQLLVYDAITLADGVPSRFSGSGSGTQYSLKINSLQPEDFGNYYCQHFWSFPLTFGAGTKVEIK | no binding (tested: ELISA value not >0.65) | – | no binding (tested: ELISA value not >0.65) | no binding (tested: ELISA value not >0.65)
12H10 (antibody, V domains shown) VH: DVQLQESGPGLVKPSQPLSLTCTVTGYSITSNYAWNWIRQFPGDKLEWMGYISSSGITKSNPSLKSRISITRDTSKNQFFLQLNSLTTEDTATYYCSRWSNWSFDVWGAGTTVTVSS VL: DIQMTQTPSSLSVSLGDRVTINCRASQDIHNYFNWYQQKPDGTIKLLIYYTSRFHSGVPSRFSGSGSGTDYSLTISNLEEEDIATYFCQQGNSLPPTFGGGTKLEIK | no binding (tested: ELISA value not >0.65) | – | – | no binding (tested: ELISA value not >0.65)
